From patent US20090203658A1, “NEUROACTIVE STEROID COMPOSITIONS AND METHODS OF USE THEREFOR” (Duke University, priority 2007, published 2009)
At least one compound was matched to its structure with a doubt left.

Tested on: rat frontal cortex
Assay: Neuroactive steroid levels in frontal cortex after chronic lithium or valproate (GC/MS preceded by HPLC)
Assay type: in vivo, Male Wistar Kyoto rats
Procedure: Lithium and Valproate Administration.
NS analyses in rat and mouse frontal cortex were performed as described in Marx et al., 2006a; Marx et al., 2006b; and Marx et al., 2006c. Rodent brain tissue was homogenized in 5 volumes of distilled water containing about 2200 cpm (4400 dpm/injection) of tritiated NS (Perkin Elmer, Waltham, Mass.) to detect the HPLC fraction containing the NS of interest. Deuterated ALLO (D4-ALLO, 400 pg) and deuterated PG (D4-PG, 400 pg) were used as internal standards. Supernatants were extracted three times with three volumes of ethyl acetate and dried under nitrogen prior to HPLC purification. […] The limit of NS detection with this method was 2 pg for ALLO and 10 pg for PG. Mean intra-assay coefficients of variation were 3.9% for ALLO and 3.0% for PG.
Statistical Analysis. For rat experiments utilizing chronic lithium and valproate administration, data were analyzed by ANOVA with post-hoc Dunnett tests. Data from Bcl-2 knockout mouse experiments were analyzed by unpaired t-tests.
To that end, NS levels (ALLO and PG) were determined in frontal cortex by negative ion chemical ionization gas chromatography/mass spectrometry in male Wistar Kyoto rats treated chronically with lithium, valproate, or vehicle. NS were also investigated in heterozygous Bcl-2 knockout mice.

Compound	change of ALLO levels in rat frontal cortex vs. vehicle (chronic administration)	effect on ALLO and PG levels in rat frontal cortex vs. vehicle (chronic administration four weeks, n=9)
[Li] [lithium]	more than tripled	
CCCC(CCC)C(=O)O [valproate]		alters neither ALLO nor PG levels
